“Also recorded” adds a separate entry of the source.
Key:
[1] = tested on: R. flavipes workers; assay: Termite consumption of erythritol-treated filter paper assessed with blue dye; assay type: in vivo, Reticulitermes flavipes
[2] = tested on: R. flavipes workers; assay: Termite choice test between erythritol-treated and control filter paper disks; assay type: in vivo, Reticulitermes flavipes; settings: 1.25 M versus 0 M erythritol filter paper disks, 1 h

OC[C@@H](O)[C@@H](O)CO [erythritol, (2R,3S)-butane-1,2,3,4-tetraol]
consumption of erythritol-treated paper ([1]; all treatment concentrations): consumed by termites at all treatment concentrations; also recorded: consumed erythritol-treated paper at all concentrations
dead treatment termites with blue dye visible in their guts ([1]; blue-stained filter papers treated with 0.25-1.5 M erythritol, 8 d): 81%
relative preference / avoidance of erythritol-treated disks [2]: did not differ in their relative preference; also recorded: No difference in termite attendance; also recorded: do not display avoidance; also recorded: did not display avoidance
